Test results: paper PMC4234379

Target: T1, mTERF15-strep (lacking N-terminal 34 aa) del1-34 (Arabidopsis thaliana) (UniProt Q9C6A1)
T1 sequence (looked up): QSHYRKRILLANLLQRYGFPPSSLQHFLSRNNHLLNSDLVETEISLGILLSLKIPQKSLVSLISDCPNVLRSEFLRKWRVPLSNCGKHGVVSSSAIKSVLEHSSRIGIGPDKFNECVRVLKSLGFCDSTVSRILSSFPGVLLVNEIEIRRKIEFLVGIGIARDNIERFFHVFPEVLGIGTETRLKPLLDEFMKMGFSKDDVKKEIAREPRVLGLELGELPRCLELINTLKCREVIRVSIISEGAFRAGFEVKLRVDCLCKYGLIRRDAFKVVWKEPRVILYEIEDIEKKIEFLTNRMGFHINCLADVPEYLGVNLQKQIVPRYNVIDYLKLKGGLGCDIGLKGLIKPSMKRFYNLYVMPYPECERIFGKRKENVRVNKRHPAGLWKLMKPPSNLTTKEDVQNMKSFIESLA
Assay: EMSA
Conditions: 0-20 nM protein, 100 nM RNA, heparin, EMSA: 20 mM Tris/HCl pH 7.5, 180 mM NaCl, 2 mM DTT, 17 ug/ul BSA, 0.5 mM EDTA, 20 ug/ml heparin, 30 min, room temperature, recombinant protein, residues 35-445, protein details: Strep tag (pET52b), label: 32P (5' end, T4 PNK), probe letters rebuilt from the primers and the genome

Sequence | binding result | binding result (dose-dependent)
GAAUACGCGUGUUAUCUGAAGGGAGCACGCUUUUUCGACCGCGGUGCUAUGAUUGCCGGAGCCUCUCCUCGUUCCGCCCGCUGGCCUAUUGGGAUAGCAGCCUGCGGCCUUUGCCUGCCCAUUAGAAUAAUAAUCAAAAAUUCCGGCUCGGCCCGGGAAAGCGCUGGCAACAACAGAAAGGAAGGGGUCCAUGUAGCUGCUGCGCCCGCCCCUCUUCUUAGUCAAUGGGGCAGCAGGUUCGGCAUCUACUAGAAAAGAGAGAAUCCACUUCAGAAACCACACCUCGGCUAGGCAGCGUGUGGAAUGGCCGAGAGCGGACCUUUUUGGAUAUAUAAUCCAAGUCGAGAGUGGAGUUACAGGAACAGCCGUCUGAUGGAAAAAAACUUUCACGUUCGGUUCAGAGAGCACUUUUUUCGUUGAGAAUUCCUCGUUCCCUUUCGUGUGAAUUCCCCAGUGGCGAAUUUCAAACUUGUGGGUCUAUUCAAUCUCUCGAGCCCCGAAGAAAACCCCCUCCCCC [nad2 intron 3 Fragment 5] | no binding | 
GAAUACGGGCGGCUGUAGGACGGACGGCCGCCUAUAGGUGGUAGGGUAGGGUGGGUGGUACCGCUCAGAUUGCGGCCAAUCUUCCUAACCGCGCGCGGGCCGGGCUUAGAGCGAGUGAAACUCAUCACUACCUCGUAAGGGCAUUGAGACCAUAGCAUGUUACACGAGGAAAAAAAACCCUUGUAGUGUUGUCACACAGCUGCCCGCCUAGAAGAGUCACUCGCUCUGUAGUGUUGUCACACAAGAUAAGCACGUCGCCCGCCUGCUGGCCGGGCGAAUCGAAGUUCUCUUCCGGUCAACUGUCCACCCAGUCAAGUGCAAAAAACACAGUAGAAUCACGCAACGCACGCUACUGGUGUGCUUCCUGCCCGCGAGGAAAGAAAGAAGAGCGACAAGGUUGAGUUCAGAUUUGACUGUUUGCAGCAUGGGAGCAGAUUACCCAAAAAAUCCCUGGGAACAAUGAAAAAAAAAGAUAUCUCGGUAACAAAAACCAUAGGGGGCUGUAUUGGCGAGAUCCAACGGUGAACAG [nad2 intron 3 Fragment 1] |  | binds

Negatives hold for the conditions tested. Tags and fusion partners may be left off the protein sequences shown. The exact form of at least one protein or probe is not confirmed.
